For 2 molecules, binding results are on record in paper PMC7958410, “Hepatitis B virus X protein promotes vimentin expression via LIM and SH3 domain protein 1 to facilitate epithelial-mesenchymal transition and hepatocarcinogenesis” (Cell Communication and Signaling : CCS, 2021).

By UniProt entry, the sequences of proteins in these tests, tags left out.
UniProt P08670: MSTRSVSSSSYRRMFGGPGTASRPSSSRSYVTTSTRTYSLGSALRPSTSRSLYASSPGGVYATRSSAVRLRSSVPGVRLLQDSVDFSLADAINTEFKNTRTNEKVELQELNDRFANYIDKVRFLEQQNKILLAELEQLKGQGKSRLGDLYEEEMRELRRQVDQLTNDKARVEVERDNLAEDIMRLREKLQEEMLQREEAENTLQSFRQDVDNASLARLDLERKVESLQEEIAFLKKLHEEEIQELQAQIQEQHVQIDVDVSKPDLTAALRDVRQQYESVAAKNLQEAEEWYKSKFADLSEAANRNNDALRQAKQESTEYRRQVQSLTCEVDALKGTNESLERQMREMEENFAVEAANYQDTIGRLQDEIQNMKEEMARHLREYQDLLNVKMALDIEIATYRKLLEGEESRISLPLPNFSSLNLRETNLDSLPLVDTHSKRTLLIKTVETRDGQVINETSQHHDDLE

Results are given in words; binding and its absence hold for the method and conditions named. In cells and extracts the contact can be indirect. Binding calls can cover weak binding; strength is not graded here. For some of these results: Where a sequence is shown, tags or fusion partners need not be part of it.

Common to all, as to assay: co-IP; plasmids of HBX, LASP1, vimentin and their deletion mutants co-transfected into HEK293T cells; western blot
For experiment [1], the target named is HBX-1 (1–120 aa, a C-terminal deletion mutant of HBX) (hepatitis B virus) (UniProt P03165).
Experiment [2] has as its target HBX-3 (51–154 aa, an N terminal deletion mutant of HBX) (hepatitis B virus) (UniProt P03165).
Experiment [3] deals with HBX-2 (51–120 aa, a double-terminal deletion mutant of HBX) (hepatitis B virus) (UniProt P03165).

Regarding “vimentin-Flag (from UniProt P08670 1-466)”, the binding entry in experiment [1], in experiment [2] and in experiment [3] was “binds” each time.

B1: GST-LASP1 (natural protein, UniProt Q14847 1-261, looked up)
chain: MNPNCARCGKIVYPTEKVNCLDKFWHKACFHCETCKMTLNMKNYKGYEKKPYCNAHYPKQSFTMVADTPENLRLKQQSELQSQVRYKEEFEKNKGKGFSVVADTPELQRIKKTQDQISNIKYHEEFEKSRMGPSGGEGMEPERRDSQDGSSYRRPLEQQQPHHIPTSAPVYQQPQQQPVAQSYGGYKEPAAPVSIQRSAPGGGGKRYRAVYDYSAADEDEVSFQDGDTIVNVQQIDDGWMYGTVERTGDTGMLPANYVEAI
notes: LIM and SH3 domain protein 1 (LASP1); also called LASP1 with GST Tag
With B1, the binding result in experiment [1] is “binds”.
